From patent publication US7291720B2, “Use of sublethal concentrations of anti-invasin compounds to therapeutically or prophylactically treat fungal infections” (priority 2000, dated 2007)
At least one structure is not confirmed: it was looked up by name or label, or the drawing left a doubt.

Test system: Candida
Experiment: Candida agar invasion assay (agar+drug plates with serum, 2 days at 37 C)
Assay type: cell-based, Candida albicans

In the case of CCC(C)n1ncn(-c2ccc(N3CCN(c4ccc(OCC5COC(Cn6cncn6)(c6ccc(Cl)cc6Cl)O5)cc4)CC3)cc2)c1=O (centres unmarked) [itraconazole], the “colony growth and invasion in the presence of drug” value (FIG. 14) is reported as “invasion is inhibited but the cells continue to grow” and the “lowest concentration able to inhibit invasion” value (fraction of MIC, colonies at 40x magnification) is reported as “⅛- 1/16”.
